In PubChem BioAssay AID540276 (National Center for Advancing Translational Sciences (NCATS), 2011):
Where “and” joins values, the source holds several entries; their conditions need not be identical. Identical values can stand only once. Hit rate of the full screen: of about 300,000 compounds, about 5,400 (1.8%) were called active. This list was built around the results that the source calls inconclusive (neither active nor inactive); the mix of calls is not that of the screen. The call rests on the fitted dose curve; tested in HEK293 cells. Potencies of inconclusive entries are doubtful fits and often do not repeat.

Assay: qHTS for inhibitors of binding or entry into cells for Marburg Virus
Details: Marburg virus pseudotyped entry inhibition, cell reporter; activity change, negative = inhibition: at 37.8 µM (top of the series) unless noted
On the % scale 0 is the no-effect control and ±100 the full control effect; potency means the concentration at half of the fitted maximal effect.

Question: Which Potency does the source give for `COc1ccccc1CC(=O)NCc1ccc2c(c1)OCO2` here?
Answer: inconclusive: 29.1 µM [activator, single point]

Question: With `CCOC(=O)N1CCN(CC(O)COc2ccccc2C(C)(C)C)CC1` (configuration not stated) as the compound, how does the Potency read?
Answer: inconclusive: 31.6 µM [activator, single point]

Question: Which Potency does the source give for `COC(=O)c1ccc(C(=O)OC)c(NC(=S)N2CCN(C)CC2)c1` here?
Answer: inconclusive: 3.98 µM [activator, full curve]

Question: With `O=C(Nc1ccccc1F)c1ccc2c(c1)OCO2` as the compound, how does the Potency read?
Answer: inconclusive: 7.08 µM [inhibitor, partial curve]

Question: For `O=[N+]([O-])c1cccnc1N1CCC(c2cc(-c3cccc(C(F)(F)F)c3)n[nH]2)CC1`, which Potency is on record?
Answer: inconclusive: 25.1 µM [inhibitor, single point]

Question: With `CCCn1c(=O)c2[nH]c(-c3ccc(S(=O)(=O)O)cc3)nc2n(CCC)c1=O` as the compound, how does the Potency read?
Answer: inconclusive: 18.3 µM [activator, single point]

Question: And the activity change, negative = inhibition?
Answer: inconclusive: -22.2% [inhibitor]

Question: Which “activity change, negative = inhibition” value does the source give for `CC(=O)NS(=O)(=O)c1ccc(NC(=O)/C=C/c2ccco2)cc1` here?
Answer: inactive: 0.994% [at 46.1 µM]

Question: For `CC(=O)N(C)c1ccc(C=C2C=Cc3ccccc32)cc1`, which Potency is on record?
Answer: inconclusive: 10 µM [inhibitor, single point]

Question: With `Cc1ccc(CN(C)S(=O)(=O)c2c(C)noc2/C=C/N(C)C)cc1` as the compound, how does the Potency read?
Answer: inconclusive: 25.1 µM [inhibitor, single point]

Question: With `COc1ccc(CN2CCn3ncc(C(=O)Nc4cccc(C)c4)c3C2=O)cc1` as the compound, how does the “activity change, negative = inhibition” value read?
Answer: inactive: 6.39%

Question: Which “activity change, negative = inhibition” value does the source give for `Cc1cc(C)c2c(c1)CC(C)(C)CC2=O` here?
Answer: inactive: 2.04%

Question: With `CCC(COC)NC(=O)CCc1nnc(Cc2cccc(C(F)(F)F)c2)o1` (configuration not stated) as the compound, how does the Potency read?
Answer: inconclusive: 20 µM [activator, partial curve, poor fit]

Question: Which Potency does the source give for `CNC(=O)COC(=O)c1cc2c(C)nn(-c3ccc(F)cc3)c2s1` here?
Answer: inconclusive: 2.06 µM [activator, partial curve, poor fit]

Question: Which Potency does the source give for `CN1C(=O)/C(=C/C=C2\SCCN2C)OC1=S` here?
Answer: inconclusive: 15.8 µM [activator, single point]

Question: Which Potency does the source give for `CC(=O)c1ccc(OCC(O)CN(C)CCOc2ccc(Br)cc2)cc1` (configuration not stated) here?
Answer: active: 8.91 µM

Question: With `Cn1c(O)c(C=NCCc2c[nH]c3ccccc23)c(=O)n(C)c1=O` as the compound, how does the Potency read?
Answer: inconclusive: 0.0794 µM [inhibitor, full curve, poor fit]

Question: For `COc1ccc(CCNc2oc(-c3cccc4ccccc34)nc2P(=O)(OC)OC)cc1OC`, which Potency is on record?
Answer: inconclusive: 3.98 µM [inhibitor, partial curve, poor fit]

Question: With `COc1ccc(OC)c(-c2csc(NC(=O)C3CSC4(C)CCC(=O)N34)n2)c1` (configuration not stated) as the compound, how does the Potency read?
Answer: inconclusive: 8.91 µM [inhibitor, partial curve, poor fit]

Question: With `Nc1c2c(nc3sc4c(c13)CCCC4)CCCCCC2` as the compound, how does the “activity change, negative = inhibition” value read?
Answer: inactive: 6.37%

Question: Which Potency does the source give for `Cc1c(C(=O)Nc2ccncc2)oc2c1C(=O)CC(C)(C)C2` here?
Answer: inconclusive: 29.1 µM [inhibitor, single point]

Question: For `CC(C)Oc1ccccc1C1Nc2ccccc2C(=O)N1c1ccc2c(c1)OCCO2` (configuration not stated), which Potency is on record?
Answer: inconclusive: 25.1 µM [inhibitor, single point]

Question: For `CC(=O)OCC1=C(C(=O)[O-])N2C(=O)[C@@H](NC(=O)CCC[C@@H](N)C(=O)[O-])[C@H]2SC1.[Zn+2]`, which Potency is on record?
Answer: inconclusive: 20 µM [inhibitor, full curve, poor fit]

Question: With `CCN1CCN(c2ccc(S(=O)(=O)N3CCCCC3)cc2NC(=O)COc2ccc(Cl)c(C)c2)CC1` as the compound, how does the Potency read?
Answer: inconclusive: 10 µM [inhibitor, partial curve, poor fit]

Question: Which “activity change, negative = inhibition” value does the source give for `Cc1nc(CCN2C(=O)c3ccccc3C2=O)n[nH]1` here?
Answer: inactive: -0.708%

Question: Which Potency does the source give for `COc1ccc(CNc2nc3ccccc3n2CCN2CCCCC2)cc1` here?
Answer: inconclusive: 14.1 µM [inhibitor, single point]

Question: With `Cc1nc([N+](=O)[O-])cn1CC(O)c1ccc(F)cc1` (configuration not stated) as the compound, how does the “activity change, negative = inhibition” value read?
Answer: inactive: 0.492% [at 46.1 µM]

Question: With `CCN(CC(=O)Nc1cccc(OC)c1)C(=O)c1cnc(Cl)c(Cl)c1` as the compound, how does the “activity change, negative = inhibition” value read?
Answer: inactive: 12.1% [at 46.1 µM]

Question: Which Potency does the source give for `C=C(C)COc1ccc(-c2nc(N)nc(C)c2Oc2ccccc2OC)c(O)c1` here?
Answer: inconclusive: 35.5 µM [inhibitor, single point]

Question: With `Cc1ccc(CNC(=O)CSc2nc3c(sc4ccccc43)c(=O)n2CCCN2CCCC2)cc1` as the compound, how does the Potency read?
Answer: inconclusive: 7.94 µM [inhibitor, partial curve, poor fit]

Question: With `CCN(CC)CCCN=C(C)c1c(O)n(C2CCCCC2)c(=O)[nH]c1=O` as the compound, how does the “activity change, negative = inhibition” value read?
Answer: inactive: -8.56%

Question: For `Cn1c(=O)n(-c2cccc(Cl)c2)c(=O)c2c3c(sc21)COC(C)(C)C3`, which Potency is on record?
Answer: inconclusive: 32.6 µM [inhibitor, single point]

Question: With `O=C(N/N=C/c1c[nH]c2ccc(Br)cc12)c1ccn(Cc2ccc(Cl)cc2Cl)n1` as the compound, how does the Potency read?
Answer: inconclusive: 17.8 µM [inhibitor, single point]

Question: Which Potency does the source give for `Cc1cccc(N2CCN(C(=O)c3ccc4[nH]c(C)c(C)c4c3)CC2)c1C` here?
Answer: inconclusive: 6.31 µM [inhibitor, single point]

Question: With `CC(C)Cn1cnc2c(c(-c3ccccc3)c(-c3ccccc3)n2Cc2ccco2)c1=N` as the compound, how does the Potency read?
Answer: active: 2.82 µM

Question: With `Cc1cccc(-c2nnc(SCC(=O)NCc3ccc4c(c3)OCO4)n2C)c1` as the compound, how does the Potency read?
Answer: inconclusive: 7.94 µM [activator, partial curve, poor fit]

Question: With `Cc1ccccc1N1C(=O)c2cc(S(N)(=O)=O)c(Cl)cc2NC1C` (configuration not stated) as the compound, how does the Potency read?
Answer: inactive and inconclusive: 100 nM [inhibitor, full curve]

Question: For `Cc1ccccc1NC(=S)NCCc1ccc(S(N)(=O)=O)cc1`, which Potency is on record?
Answer: inconclusive: 3.16 µM [activator, single point]

Question: Which Potency does the source give for `COc1ccc(-n2c(-c3ccc(C)cc3)cc3c2CC(C)(C)CC3=O)c(OC)c1` here?
Answer: inconclusive: 35.5 µM [inhibitor, partial curve, poor fit]

Question: With `CCOC(=O)c1cccc(Nc2ncnc3ccc(C)cc23)c1` as the compound, how does the Potency read?
Answer: inconclusive: 1.78 µM [inhibitor, full curve]

Question: For `CC1=C(/C=C/C(C)=N\NC(=O)c2ccncc2)C(C)(C)CCC1`, which Potency is on record?
Answer: inconclusive: 15.8 µM [inhibitor, single point]

Question: For `CCC(=O)n1nc(-c2ccc(OC)cc2)nc1SC`, which “activity change, negative = inhibition” value is on record?
Answer: inactive: 14.4%
